Consider 1 molecule from article PMC9258208.

Assay [1] addresses T1, Flag-Smad4, Q13485.
T1 chain: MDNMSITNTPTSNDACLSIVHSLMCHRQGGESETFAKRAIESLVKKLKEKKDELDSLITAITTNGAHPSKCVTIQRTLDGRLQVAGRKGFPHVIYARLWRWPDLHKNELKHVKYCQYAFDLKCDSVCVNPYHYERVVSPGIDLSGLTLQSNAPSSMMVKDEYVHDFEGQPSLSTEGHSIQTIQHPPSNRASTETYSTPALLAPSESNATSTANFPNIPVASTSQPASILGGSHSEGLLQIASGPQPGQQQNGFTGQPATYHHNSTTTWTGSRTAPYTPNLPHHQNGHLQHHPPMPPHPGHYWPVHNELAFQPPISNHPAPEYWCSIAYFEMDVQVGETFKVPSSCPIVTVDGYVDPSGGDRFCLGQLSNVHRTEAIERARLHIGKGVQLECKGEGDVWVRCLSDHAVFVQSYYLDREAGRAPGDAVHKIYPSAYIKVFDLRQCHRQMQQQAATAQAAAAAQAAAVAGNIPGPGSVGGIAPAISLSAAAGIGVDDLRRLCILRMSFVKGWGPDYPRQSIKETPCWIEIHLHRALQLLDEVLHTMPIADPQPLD
Kind of assay: co-IP; two-step immunoprecipitation: Flag-Smad4 complex from transfected MDA-MB-231 cells (5 ng/ml TGF-β, 2 h), eluted with M2 peptide, then precipitated with anti-Smad3 antibody. The note with it: remark: other sources report otherwise.

Assay [2] concerns the target T2, Smad4 (human (endogenous in MDA-MB-231 and M10)), Q13485.
T2 chain: T1 chain
Kind of assay: co-IP; endogenous Smad3 and Smad4; MDA-MB-231 cells stably expressing Smyca shRNAs or Smyca constructs, or M10 cells stably expressing Smyca; with or without 5 ng/ml TGF-β for 1 h; RIPA lysates. The note with it: remark: other sources report otherwise.

No constants are given. Whether binding was seen depends on the method and setting. Binding seen in cells or lysates may run through a third protein. Some entries that bind do so weakly or less than the wild type. For some assays here: Tags and fused reporters may be left off the sequences shown.

B1: Smad3, P84022 1-425 (protein)
chain: MSSILPFTPPIVKRLLGWKKGEQNGQEEKWCEKAVKSLVKKLKKTGQLDELEKAITTQNVNTKCITIPRSLDGRLQVSHRKGLPHVIYCRLWRWPDLHSHHELRAMELCEFAFNMKKDEVCVNPYHYQRVETPVLPPVLVPRHTEIPAEFPPLDDYSHSIPENTNFPAGIEPQSNIPETPPPGYLSEDGETSDHQMNHSMDAGSPNLSPNPMSPAHNNLDLQPVTYCEPAFWCSISYYELNQRVGETFHASQPSMTVDGFTDPSNSERFCLGLLSNVNRNAAVELTRRHIGRGVRLYYIGGEVFAECLSDSAIFVQSPNCNQRYGWHPATVCKIPPGCNLKIFNNQEFAALLAQSVNQGFEAVYQLTRMCTIRMSFVKGWGAEYRRQTVTSTPCWIELHLNGPLQWLDKVLTQMGSPSIRCSSVS
On to B1, for which the binding entry in assay [1] and in assay [2] was “binds” throughout.
